Reference: the supplement of paper PMC10060354, “Discovery of a small molecule ligand of FRS2 that inhibits invasion and tumor growth” (Cellular Oncology, 2022)
Single values are uncertain, as repeats are few or missing.

By UniProt entry, the sequences of proteins in these tests, tags left out. Where a name states a change or a piece, a line headed by the entry shows the natural chain unless it says otherwise.
UniProt Q96H78: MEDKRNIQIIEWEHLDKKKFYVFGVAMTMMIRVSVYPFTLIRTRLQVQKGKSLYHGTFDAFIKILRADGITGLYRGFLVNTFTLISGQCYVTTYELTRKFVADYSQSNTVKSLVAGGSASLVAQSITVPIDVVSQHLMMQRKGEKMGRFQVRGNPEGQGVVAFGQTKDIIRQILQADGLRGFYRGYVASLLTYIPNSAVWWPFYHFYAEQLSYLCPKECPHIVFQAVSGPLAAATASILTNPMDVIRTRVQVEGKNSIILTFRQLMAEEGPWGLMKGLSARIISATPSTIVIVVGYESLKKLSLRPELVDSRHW
UniProt Q8TCY9: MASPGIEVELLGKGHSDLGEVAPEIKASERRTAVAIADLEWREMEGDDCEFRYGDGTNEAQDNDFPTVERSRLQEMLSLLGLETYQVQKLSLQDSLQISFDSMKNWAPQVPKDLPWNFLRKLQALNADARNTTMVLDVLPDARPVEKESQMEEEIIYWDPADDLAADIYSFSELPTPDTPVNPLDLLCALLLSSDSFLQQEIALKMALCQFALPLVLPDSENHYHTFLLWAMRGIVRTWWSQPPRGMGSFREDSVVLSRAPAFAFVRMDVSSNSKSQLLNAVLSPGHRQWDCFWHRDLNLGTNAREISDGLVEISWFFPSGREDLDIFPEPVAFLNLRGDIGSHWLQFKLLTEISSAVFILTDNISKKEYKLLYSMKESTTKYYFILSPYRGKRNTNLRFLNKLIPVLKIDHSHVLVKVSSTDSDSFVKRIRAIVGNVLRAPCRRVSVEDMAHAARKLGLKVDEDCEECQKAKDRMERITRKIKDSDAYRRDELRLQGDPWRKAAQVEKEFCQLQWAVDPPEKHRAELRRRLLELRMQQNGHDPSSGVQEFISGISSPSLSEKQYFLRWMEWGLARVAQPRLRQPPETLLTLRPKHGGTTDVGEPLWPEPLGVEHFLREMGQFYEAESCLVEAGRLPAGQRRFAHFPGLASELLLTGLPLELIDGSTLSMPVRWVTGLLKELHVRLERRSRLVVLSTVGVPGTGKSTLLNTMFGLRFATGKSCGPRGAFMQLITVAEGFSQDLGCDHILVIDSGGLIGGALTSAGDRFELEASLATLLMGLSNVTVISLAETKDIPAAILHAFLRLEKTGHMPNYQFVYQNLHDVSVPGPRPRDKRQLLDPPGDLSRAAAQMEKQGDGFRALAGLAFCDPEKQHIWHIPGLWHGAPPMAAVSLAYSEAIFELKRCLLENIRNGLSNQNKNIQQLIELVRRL
UniProt Q9UJC5: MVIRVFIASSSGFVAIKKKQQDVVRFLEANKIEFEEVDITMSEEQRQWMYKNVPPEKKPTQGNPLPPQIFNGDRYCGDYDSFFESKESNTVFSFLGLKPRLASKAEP
UniProt Q01628, whole entry: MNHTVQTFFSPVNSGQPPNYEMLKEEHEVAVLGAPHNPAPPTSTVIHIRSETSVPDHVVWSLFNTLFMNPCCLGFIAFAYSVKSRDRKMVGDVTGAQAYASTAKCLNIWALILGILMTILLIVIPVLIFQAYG
UniProt O60573: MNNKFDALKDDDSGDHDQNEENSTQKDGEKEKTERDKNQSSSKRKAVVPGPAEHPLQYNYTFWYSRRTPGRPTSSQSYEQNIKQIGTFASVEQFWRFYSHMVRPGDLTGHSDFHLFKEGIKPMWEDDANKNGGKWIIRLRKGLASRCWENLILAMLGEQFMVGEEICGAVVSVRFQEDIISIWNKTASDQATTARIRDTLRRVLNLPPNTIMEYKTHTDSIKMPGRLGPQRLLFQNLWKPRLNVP
UniProt Q99943: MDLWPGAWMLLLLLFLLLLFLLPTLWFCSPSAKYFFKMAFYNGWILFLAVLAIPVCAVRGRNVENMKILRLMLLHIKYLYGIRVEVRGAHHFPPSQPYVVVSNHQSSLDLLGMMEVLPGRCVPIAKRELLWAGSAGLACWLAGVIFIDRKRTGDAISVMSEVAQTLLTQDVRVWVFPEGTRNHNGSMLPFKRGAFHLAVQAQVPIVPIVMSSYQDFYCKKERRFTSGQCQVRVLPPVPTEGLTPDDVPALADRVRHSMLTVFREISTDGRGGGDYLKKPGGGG
UniProt Q8TBP6: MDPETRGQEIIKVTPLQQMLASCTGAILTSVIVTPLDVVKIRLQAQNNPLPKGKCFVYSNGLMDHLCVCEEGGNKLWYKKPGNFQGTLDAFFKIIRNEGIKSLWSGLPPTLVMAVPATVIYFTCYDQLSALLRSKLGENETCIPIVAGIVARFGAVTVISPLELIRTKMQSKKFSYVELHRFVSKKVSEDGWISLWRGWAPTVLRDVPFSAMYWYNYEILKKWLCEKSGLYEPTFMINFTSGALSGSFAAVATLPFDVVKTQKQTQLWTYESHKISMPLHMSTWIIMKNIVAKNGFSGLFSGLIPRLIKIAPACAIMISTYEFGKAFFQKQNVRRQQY
UniProt P08235: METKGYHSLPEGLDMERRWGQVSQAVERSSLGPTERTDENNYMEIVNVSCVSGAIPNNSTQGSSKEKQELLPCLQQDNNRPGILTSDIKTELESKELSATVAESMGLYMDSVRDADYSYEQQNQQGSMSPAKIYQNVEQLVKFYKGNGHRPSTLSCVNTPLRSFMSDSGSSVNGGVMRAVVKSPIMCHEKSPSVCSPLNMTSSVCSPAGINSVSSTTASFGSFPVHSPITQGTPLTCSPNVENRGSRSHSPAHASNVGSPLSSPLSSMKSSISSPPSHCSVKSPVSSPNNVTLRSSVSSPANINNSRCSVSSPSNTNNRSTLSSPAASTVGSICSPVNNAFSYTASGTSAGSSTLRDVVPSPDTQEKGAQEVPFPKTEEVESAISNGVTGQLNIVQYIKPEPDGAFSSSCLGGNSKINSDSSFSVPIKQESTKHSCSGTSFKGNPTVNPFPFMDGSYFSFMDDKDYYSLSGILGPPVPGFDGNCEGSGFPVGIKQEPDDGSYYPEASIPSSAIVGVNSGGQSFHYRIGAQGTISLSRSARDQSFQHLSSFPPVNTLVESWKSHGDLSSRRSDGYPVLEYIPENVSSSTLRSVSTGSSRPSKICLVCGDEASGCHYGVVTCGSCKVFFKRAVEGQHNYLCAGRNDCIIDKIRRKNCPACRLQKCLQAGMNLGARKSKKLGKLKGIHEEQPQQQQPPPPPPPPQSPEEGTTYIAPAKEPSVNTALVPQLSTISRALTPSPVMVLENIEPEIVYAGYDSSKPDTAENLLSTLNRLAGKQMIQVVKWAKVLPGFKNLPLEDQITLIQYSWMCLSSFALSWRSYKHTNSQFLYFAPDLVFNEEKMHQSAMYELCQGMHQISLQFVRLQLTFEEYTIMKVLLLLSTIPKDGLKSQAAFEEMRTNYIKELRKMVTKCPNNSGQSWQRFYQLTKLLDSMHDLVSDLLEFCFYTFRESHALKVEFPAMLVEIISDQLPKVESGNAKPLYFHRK
UniProt P0DJD0, whole entry: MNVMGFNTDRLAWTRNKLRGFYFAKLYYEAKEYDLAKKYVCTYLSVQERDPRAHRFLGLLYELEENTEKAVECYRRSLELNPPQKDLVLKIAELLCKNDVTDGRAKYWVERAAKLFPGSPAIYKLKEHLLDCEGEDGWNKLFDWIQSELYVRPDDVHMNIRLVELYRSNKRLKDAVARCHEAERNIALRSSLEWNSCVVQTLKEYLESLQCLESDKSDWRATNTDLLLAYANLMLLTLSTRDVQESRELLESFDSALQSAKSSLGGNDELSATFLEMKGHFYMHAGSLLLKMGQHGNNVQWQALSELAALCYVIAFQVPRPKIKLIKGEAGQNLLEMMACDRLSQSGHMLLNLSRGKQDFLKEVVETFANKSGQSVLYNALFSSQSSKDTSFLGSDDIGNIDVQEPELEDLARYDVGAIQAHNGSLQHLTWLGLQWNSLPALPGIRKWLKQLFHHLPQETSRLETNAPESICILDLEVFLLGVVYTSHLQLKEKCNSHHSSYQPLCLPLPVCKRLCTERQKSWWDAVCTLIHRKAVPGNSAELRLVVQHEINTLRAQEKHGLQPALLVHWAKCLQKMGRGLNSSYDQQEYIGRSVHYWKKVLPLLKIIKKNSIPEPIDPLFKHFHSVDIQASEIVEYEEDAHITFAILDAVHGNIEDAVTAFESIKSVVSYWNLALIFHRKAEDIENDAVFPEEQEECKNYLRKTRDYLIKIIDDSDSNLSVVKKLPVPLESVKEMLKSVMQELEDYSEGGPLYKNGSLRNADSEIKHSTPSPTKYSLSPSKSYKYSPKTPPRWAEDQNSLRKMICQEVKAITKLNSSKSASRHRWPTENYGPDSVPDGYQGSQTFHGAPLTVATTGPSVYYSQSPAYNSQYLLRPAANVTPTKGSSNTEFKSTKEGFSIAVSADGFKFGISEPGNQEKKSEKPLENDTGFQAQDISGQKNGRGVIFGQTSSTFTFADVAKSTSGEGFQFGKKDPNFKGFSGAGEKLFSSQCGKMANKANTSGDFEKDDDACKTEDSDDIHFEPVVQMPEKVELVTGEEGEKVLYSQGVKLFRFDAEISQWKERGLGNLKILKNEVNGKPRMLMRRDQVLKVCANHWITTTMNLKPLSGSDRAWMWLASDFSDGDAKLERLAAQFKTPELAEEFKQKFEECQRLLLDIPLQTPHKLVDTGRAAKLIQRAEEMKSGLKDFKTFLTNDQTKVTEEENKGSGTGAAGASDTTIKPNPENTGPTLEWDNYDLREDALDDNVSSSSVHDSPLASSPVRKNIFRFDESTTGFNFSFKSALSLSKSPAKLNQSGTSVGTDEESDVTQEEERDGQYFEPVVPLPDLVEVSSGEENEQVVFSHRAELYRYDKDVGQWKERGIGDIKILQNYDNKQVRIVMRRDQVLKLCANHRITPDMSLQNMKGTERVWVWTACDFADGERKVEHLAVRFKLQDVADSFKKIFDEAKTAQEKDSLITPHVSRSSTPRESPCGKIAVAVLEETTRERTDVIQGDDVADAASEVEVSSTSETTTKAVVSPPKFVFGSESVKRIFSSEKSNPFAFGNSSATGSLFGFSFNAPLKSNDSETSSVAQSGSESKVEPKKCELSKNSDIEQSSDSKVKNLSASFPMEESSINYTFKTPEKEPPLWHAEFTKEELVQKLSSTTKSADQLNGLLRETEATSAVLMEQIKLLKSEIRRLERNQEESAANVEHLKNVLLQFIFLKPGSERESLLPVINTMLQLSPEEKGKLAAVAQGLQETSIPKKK
UniProt P49703: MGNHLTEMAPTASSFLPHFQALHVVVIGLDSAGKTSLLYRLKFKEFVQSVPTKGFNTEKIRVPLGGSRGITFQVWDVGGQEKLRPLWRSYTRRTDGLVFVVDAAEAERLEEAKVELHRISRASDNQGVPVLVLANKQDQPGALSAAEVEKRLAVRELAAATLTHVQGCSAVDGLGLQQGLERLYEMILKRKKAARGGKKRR
UniProt P62166, whole entry, looked up: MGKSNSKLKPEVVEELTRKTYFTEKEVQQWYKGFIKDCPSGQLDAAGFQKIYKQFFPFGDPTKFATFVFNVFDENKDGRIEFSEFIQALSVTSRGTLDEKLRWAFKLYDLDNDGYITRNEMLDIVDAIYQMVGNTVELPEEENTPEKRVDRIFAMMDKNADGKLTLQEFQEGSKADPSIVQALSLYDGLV
UniProt Q9Y639: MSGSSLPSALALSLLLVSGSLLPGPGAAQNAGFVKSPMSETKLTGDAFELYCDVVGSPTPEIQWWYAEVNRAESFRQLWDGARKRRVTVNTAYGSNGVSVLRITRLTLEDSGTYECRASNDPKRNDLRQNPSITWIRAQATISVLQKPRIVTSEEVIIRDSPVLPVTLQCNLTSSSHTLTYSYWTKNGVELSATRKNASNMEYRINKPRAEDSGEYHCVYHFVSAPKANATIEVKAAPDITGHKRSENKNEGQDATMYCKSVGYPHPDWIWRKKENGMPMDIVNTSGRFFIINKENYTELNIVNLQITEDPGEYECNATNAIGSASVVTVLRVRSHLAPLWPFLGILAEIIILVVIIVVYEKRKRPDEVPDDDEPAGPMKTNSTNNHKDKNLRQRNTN
UniProt P20591: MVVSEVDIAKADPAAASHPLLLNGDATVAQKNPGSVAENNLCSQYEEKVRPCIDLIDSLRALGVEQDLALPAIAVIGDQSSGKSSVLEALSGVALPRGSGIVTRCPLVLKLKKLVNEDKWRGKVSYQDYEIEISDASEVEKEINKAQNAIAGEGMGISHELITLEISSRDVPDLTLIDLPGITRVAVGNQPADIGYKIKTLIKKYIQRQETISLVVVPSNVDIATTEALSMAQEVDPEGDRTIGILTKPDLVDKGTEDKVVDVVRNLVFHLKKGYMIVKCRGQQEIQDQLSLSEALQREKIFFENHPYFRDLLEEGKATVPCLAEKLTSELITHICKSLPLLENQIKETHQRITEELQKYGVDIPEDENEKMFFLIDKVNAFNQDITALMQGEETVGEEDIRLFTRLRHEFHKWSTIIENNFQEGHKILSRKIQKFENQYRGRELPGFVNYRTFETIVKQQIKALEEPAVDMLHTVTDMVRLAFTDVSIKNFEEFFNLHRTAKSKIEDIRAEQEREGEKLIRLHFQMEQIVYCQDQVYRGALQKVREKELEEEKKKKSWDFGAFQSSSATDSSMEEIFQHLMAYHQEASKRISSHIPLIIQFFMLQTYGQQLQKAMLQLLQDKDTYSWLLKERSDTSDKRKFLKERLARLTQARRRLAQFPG

Compound: [O-][N+](C(C1=C(C(O)=C2)NC(C(C=C3)=CC=C3Cl)C4C1C=CC4)=C2Cl)=O
Assay: melting temperature shift (compound 7 minus DMSO); higher = compound stabilises the protein
Conditions: 10 µM
Description: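 Thermal proteome profiling (TMT mass spectrometry) in intact DAOY medulloblastoma cells or DAOY lysates treated with 10 µM compound 7 or DMSO, heated at 10 temperatures from 40.5 to 73.8 °C for 3 min. Melting curves were fitted with the Bioconductor TPP package, and the melting point difference between compound and vehicle is reported per protein (single curve per condition).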

[1] = system: DAOY cell lysate, treatment time: 20 min, 4 °C
[2] = system: intact DAOY cells, treatment time: 90 min, 37 °C

Target	melting temperature shift [1] [°C]	melting temperature shift [2] [°C]
UniProt Q8WUJ0	-2.63	–
GPX8 (UniProt Q8TED1)	1.43	-0.677
UniProt Q96H78	–	1.66
URGCP (UniProt Q8TCY9)	-1.56	–
NCL (UniProt P19338)	0.0687	-0.169
KIF5B (UniProt P33176)	-0.13	-0.465
CPT1A (UniProt P50416)	0.139	0.289
UniProt Q9UJC5	0.242	-0.0368
UniProt Q01628	2.61	–
UniProt Q8TF09	–	-1.51
UniProt P22492	–	-0.154
UniProt P62308	-0.159	-0.839
UniProt P0DJ07	2.04	–
TAOK3 (UniProt Q9H2K8)	-0.758	-0.299
XRN2 (UniProt Q9H0D6)	0.325	0.427
COL5A1 (UniProt P20908)	1.15	0.171
LAMP2 (UniProt P13473)	-2.3	–
SIAE (UniProt Q9HAT2)	1.95	–
UniProt Q9UJV8	–	3.07
STXBP1 (UniProt P61764)	1.9	0.0949
UniProt Q14207	3.02	–

In a second layout: entries from further up
Target | melting temperature shift [1] [°C] | melting temperature shift [2] [°C]
KIF5B (UniProt P33176) | -0.13 | -0.465
CPT1A (UniProt P50416) | 0.139 | 0.289
UniProt Q9UJC5 | 0.242 | -0.0368
UniProt Q01628 | 2.61 | –
UniProt Q8TF09 | – | -1.51
UniProt P22492 | – | -0.154

(further entries)

Target	melting temperature shift [1] [°C]	melting temperature shift [2] [°C]
UniProt P17540	–	1.91
EIF4E2 (UniProt O60573)	0.0398	-0.53
WDR4 (UniProt P57081)	0.679	-0.0605
AGPAT1 (UniProt Q99943)	0.962	1.48
LPCAT4 (UniProt Q643R3)	3.95	-2.81
UniProt Q8TBP6	0.684	-1.44
UniProt Q5T442	0.302	–
UniProt P08235	–	1.62
UBIAD1 (UniProt Q9Y5Z9)	–	-0.261
FAM83D (UniProt Q9H4H8)	-1.95	–
UniProt Q567V2	0.436	–
ATP11C (UniProt Q8NB49)	1.6	2.34
TUFM (UniProt P49411)	-0.466	-1.68
UniProt P0DJD0	–	-1.81
SYNJ1 (UniProt O43426)	-0.72	-0.431
PCNT (UniProt O95613)	-1.57	-1.3
UniProt P49703	–	0.19
UniProt Q7Z4R8	1.25	–
PALMD (UniProt Q9NP74)	–	-0.869
UniProt Q8N4X5	0.0303	0.0106
RFX5 (UniProt P48382)	-0.2	-0.581

Target	melting temperature shift [1] [°C]	melting temperature shift [2] [°C]
NCS1 (UniProt P62166)	-0.248	1.96
TXNDC9 (UniProt O14530)	-0.601	0.197
UBE2F (UniProt Q969M7)	0.277	-0.521
SLC12A2 (UniProt P55011)	0.898	-1.75
PANK3 (UniProt Q9H999)	-0.61	-1.45
ARHGAP17 (UniProt Q68EM7)	-0.651	0.748
UniProt P53674	–	0.91
NPTN (UniProt Q9Y639)	1.37	–
AAK1 (UniProt Q2M2I8)	-0.176	-0.684
EIF3F (UniProt O00303)	-0.807	0.243
CASK (UniProt O14936)	-0.202	-0.0459
UniProt O60725	0.149	–
UniProt Q8NB25	–	0.0277
PLEKHA5 (UniProt Q9HAU0)	-0.127	1.42
UBL4A (UniProt P11441)	0.475	-0.706
UniProt Q9HBI0	-1.02	-0.823
UniProt P20591	0.957	-0.466
UTP20 (UniProt O75691)	-0.461	0.548
UniProt Q9BVR0	–	2.56
